This is one part of the list.

The target in the experiment is T1, OsSMF1 (Oryza sativa, UniProt Q6ZLB0 1-436).
T1 sequence: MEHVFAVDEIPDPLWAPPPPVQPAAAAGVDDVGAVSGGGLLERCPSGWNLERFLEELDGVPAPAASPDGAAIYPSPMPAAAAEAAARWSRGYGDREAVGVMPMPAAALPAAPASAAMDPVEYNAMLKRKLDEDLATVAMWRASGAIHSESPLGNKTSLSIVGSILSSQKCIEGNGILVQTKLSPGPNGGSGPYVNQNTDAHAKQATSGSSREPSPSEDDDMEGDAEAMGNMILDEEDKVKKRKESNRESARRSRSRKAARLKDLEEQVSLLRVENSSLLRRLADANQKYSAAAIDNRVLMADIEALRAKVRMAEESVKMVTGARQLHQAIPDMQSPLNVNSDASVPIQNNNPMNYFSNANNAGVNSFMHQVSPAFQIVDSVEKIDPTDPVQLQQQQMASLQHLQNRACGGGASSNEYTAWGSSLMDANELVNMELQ
Nature of the experiment: protein-binding microarray (RPBM); PBS, 2% BSA, 51.3 ng/ul salmon testes DNA, 50 uM zinc acetate, 200 nM TF, 25 C, 1 h; high values mean tight binding. The settings on record: protein: recombinant; tags: N-terminal polyhistidine and DsRed monomer fusion (pET32a); chain copies: 2; label: CyDye5-dUTP incorporated in the synthesized complementary strand; 3' TTTTT single-stranded linker to array surface; dsDNA, one strand shown. An outline of the steps: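 The binding signal is fluorescence intensity per array feature (arbitrary units). Readings came from an Axon 4000B scanner after a washed, 2% BSA-blocked, double-stranded custom Agilent array had been incubated for 1 h at 25 °C with 200 nM protein and 50 µM zinc acetate. The protein was a Ni–NTA-purified transcription factor fused N-terminally to polyhistidine and DsRed, expressed in E. coli BL21-CodonPlus.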
Regarding “GATGGAGCTCTGCAGATGCTGACACAGCCAGCCACACAGCCGGAGTCACCTAGTGCAG”, the binding signal is 8060 fluorescence intensity (a.u.).

On to “GCTTTGCCGTTTGCCACTGTTAAGGGCGTGGCAACAATATCGGAGTCACCTAGTGCAG”, for which the binding signal was 4190 fluorescence intensity (a.u.).

On to “AATTATCTTGAAGCACCTCAACTCAACCTGATGTCATACACGGAGTCACCTAGTGCAG”, for which the binding signal is 4390 fluorescence intensity (a.u.).

For the sequence “GGAGTACCACATAGCCGTTCAGCTCTAGTCAAACGTCATTCGGAGTCACCTAGTGCAG”, the binding signal was 3900 fluorescence intensity (a.u.).

As to “CTTTTCTCCCTTCTTTCTCTTTCACGTCATATATGATAATCGGAGTCACCTAGTGCAG”, the binding signal is 4910 fluorescence intensity (a.u.).

As for “AGGGAAAAGAGGAGACGGGAGGAAAGGAACGGAGGAGATGCGGAGTCACCTAGTGCAG”, the binding signal was 3340 fluorescence intensity (a.u.).

For “GGGTCATATAGAGACGACGATCAAATTTACCTTATTTTAACGGAGTCACCTAGTGCAG”, the binding signal was 3240 fluorescence intensity (a.u.).

As to “AGATTAAGTGGTGGGTGTGCGTGCATGTCTTGAGATCACCCGGAGTCACCTAGTGCAG”, the binding signal was 5820 fluorescence intensity (a.u.).

In the case of “TTTTATTCTCAGATGTTTCTCGAGGTTGTCAGCACAGCAGCGGAGTCACCTAGTGCAG”, the binding signal was 4380 fluorescence intensity (a.u.).

Regarding “GTACATCTGGCGCGGCGGCCACGAGTACATCGGGACGTGGCGGAGTCACCTAGTGCAG”, the binding signal is 5440 fluorescence intensity (a.u.).

Turning to “CATCTGAACAGCGTCTTAATATCTTAAATGGAAAATTGATCGGAGTCACCTAGTGCAG”, the binding signal is 30200 fluorescence intensity (a.u.).

Regarding “AAATGAATTAAGCATGACACATTGACATTTTGTTGACAATCGGAGTCACCTAGTGCAG”, the binding signal is 4230 fluorescence intensity (a.u.).

Consider “GGATGAATACCATAATTCAGATACGATTTGTGGCATATTCCGGAGTCACCTAGTGCAG”, for which the binding signal is 19300 fluorescence intensity (a.u.).

Regarding “GCCCTATTAATAACACATGTAATTAAGCCAACACTAATCCCGGAGTCACCTAGTGCAG”, the binding signal is 23400 fluorescence intensity (a.u.).

For the sequence “TAGAGGCAAGCACGACCAATGAGGACATAGGGAATGGTTCCGGAGTCACCTAGTGCAG”, the binding signal was 9700 fluorescence intensity (a.u.).

As to “ATTTTCTTATCTTTTCATAGACTACGACGTCACCACTATCCGGAGTCACCTAGTGCAG”, the binding signal was 6080 fluorescence intensity (a.u.).

With “TGTGCCGTGACTCGATGTGCTCCTCCATCTCTTGCTGCAACGGAGTCACCTAGTGCAG”, the binding signal was 5220 fluorescence intensity (a.u.).

Consider “GAGATGGGAGGAGAGCTAGCTAGCCGCCGAGGCTGAGCTCCGGAGTCACCTAGTGCAG”, for which the binding signal was 40600 fluorescence intensity (a.u.).

For “GCAGGCATTTGGTGAAGGTGAGGTCGACATGGACAGAGAACGGAGTCACCTAGTGCAG”, the binding signal was 3160 fluorescence intensity (a.u.).

Take “CCTTAGCATAGCTGTGTATTAGTAACTCGTTCGTGTCCCTCGGAGTCACCTAGTGCAG”: the binding signal is 3290 fluorescence intensity (a.u.).

“AATATAGTTGCTGATGCGCTGTCCAGGATGCCTGTTATACCGGAGTCACCTAGTGCAG”: the binding signal was 3680 fluorescence intensity (a.u.).

Consider “CATAATCATGTTAGATCATGACGCTAATGATGTTGGCGCCCGGAGTCACCTAGTGCAG”, for which the binding signal was 4540 fluorescence intensity (a.u.).

As to “ATTACATACATGACTCATATACACAACATGGAATCTACTTCGGAGTCACCTAGTGCAG”, the binding signal is 10500 fluorescence intensity (a.u.).

Regarding “AACACCCCATACGACACCCTATATAATATCCGATGCGACACGGAGTCACCTAGTGCAG”, the binding signal was 27800 fluorescence intensity (a.u.).

Turning to “ACAAGGTTAAGAAATCCAGGTACATTCTACAAAGCTCTCACGGAGTCACCTAGTGCAG”, the binding signal was 3450 fluorescence intensity (a.u.).

“TATTGGGCCCTACTCTTCAGCGTGACGTGGATGGGGCGCGCGGAGTCACCTAGTGCAG”: the binding signal is 11400 fluorescence intensity (a.u.).

Regarding “TTCGTCGCAATCCAATCGTTCAACGTGTACTTTGATCGCCCGGAGTCACCTAGTGCAG”, the binding signal is 3290 fluorescence intensity (a.u.).

As to “AACAACACTCAAGCGCTCATGGAATCAACATGGATTATTTCGGAGTCACCTAGTGCAG”, the binding signal is 17900 fluorescence intensity (a.u.).

With “TCTCTTTCTTTATTTCTTTAAAATATATTTATAGTTGTCTCGGAGTCACCTAGTGCAG”, the binding signal was 3490 fluorescence intensity (a.u.).

Turning to “TTGACCGGATGTCGGAACGAGTTTTCAGACACGAATGAAACGGAGTCACCTAGTGCAG”, the binding signal was 21700 fluorescence intensity (a.u.).

Take “TTGTTGGTGTTTCCTCGTCCGCGTCGTCGGTTGCATTCTCCGGAGTCACCTAGTGCAG”: the binding signal is 3190 fluorescence intensity (a.u.).

On to “GAGCACCCGAGCATCGGGGTCATGGCGATGCGCGCGTGGACGGAGTCACCTAGTGCAG”, for which the binding signal is 22300 fluorescence intensity (a.u.).

Consider “TCTAAGCTAGTCGTGTCCTCATCACTGGCTTCGACCAATACGGAGTCACCTAGTGCAG”, for which the binding signal was 3220 fluorescence intensity (a.u.).

On to “AAGAATACACGTCACGTACACCAGCACATCTAACCCAGTCCGGAGTCACCTAGTGCAG”, for which the binding signal was 13700 fluorescence intensity (a.u.).

Regarding “TTCTCGCCACATCTTTATGTTAACCACTTACTCCAATTTACGGAGTCACCTAGTGCAG”, the binding signal was 4600 fluorescence intensity (a.u.).

For the sequence “CATCCCAAGTTTGAATGTGAAGGTGAGGTCACCACGTAATCGGAGTCACCTAGTGCAG”, the binding signal was 4360 fluorescence intensity (a.u.).

As for “CGACGGCAGTTTTCGCTGCGACGAGCCCAGGATGAAGAGGCGGAGTCACCTAGTGCAG”, the binding signal is 3420 fluorescence intensity (a.u.).

Consider “ACAAGTTGGAGCTACTTTCTTTTGAAATGACAGATCAACTCGGAGTCACCTAGTGCAG”, for which the binding signal is 3250 fluorescence intensity (a.u.).

Turning to “CAATCTTAGTCATGCATTTATTGTTTTATTTCCTACTGGACGGAGTCACCTAGTGCAG”, the binding signal is 3710 fluorescence intensity (a.u.).

In the case of “AAATGTAAACAATAAACAACCTCAGGTTAGAAAGCTGAGGCGGAGTCACCTAGTGCAG”, the binding signal was 3170 fluorescence intensity (a.u.).

Turning to “GTCTCCTACACCTACGACGACGTCATCTTCCTCCCGGGCTCGGAGTCACCTAGTGCAG”, the binding signal is 6900 fluorescence intensity (a.u.).

Regarding “GAGTTTGAGGAAATCGGGAATAAAATGTCAGCCCCATATTCGGAGTCACCTAGTGCAG”, the binding signal is 26300 fluorescence intensity (a.u.).

Source of the values: PMC7819943, “Rice protein-binding microarrays: a tool to detect cis-acting elements near promoter regions in rice”.
